Data published in publication PMC2198942.
These are yes or no findings as the source states them, for the method shown. Binding seen in cells or lysates may run through a third protein. Some binding calls cover weakened binding; strength is not graded here. Tags and fused reporters may be left off the sequences shown.

Amino acid sequences for entries named in this document (tags omitted).
UniProt P00546: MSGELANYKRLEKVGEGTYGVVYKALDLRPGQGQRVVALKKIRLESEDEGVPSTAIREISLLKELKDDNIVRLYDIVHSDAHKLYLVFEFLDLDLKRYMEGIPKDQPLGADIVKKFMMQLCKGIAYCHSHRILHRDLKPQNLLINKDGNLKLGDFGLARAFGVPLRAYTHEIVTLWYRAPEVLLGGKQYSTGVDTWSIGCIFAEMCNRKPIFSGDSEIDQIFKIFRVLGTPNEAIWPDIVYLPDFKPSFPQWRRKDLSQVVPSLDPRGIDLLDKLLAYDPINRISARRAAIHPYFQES

Columns and labels:
[1] = biological target: T1, Swi4-VF[2] fusion protein (S. cerevisiae) (UniProt P25302); assay: split reporter; yEmVenus PCA as above, read in the Δelm1 deletion strain (BY4741); both fusion proteins detectable by Western blot
T1 sequence: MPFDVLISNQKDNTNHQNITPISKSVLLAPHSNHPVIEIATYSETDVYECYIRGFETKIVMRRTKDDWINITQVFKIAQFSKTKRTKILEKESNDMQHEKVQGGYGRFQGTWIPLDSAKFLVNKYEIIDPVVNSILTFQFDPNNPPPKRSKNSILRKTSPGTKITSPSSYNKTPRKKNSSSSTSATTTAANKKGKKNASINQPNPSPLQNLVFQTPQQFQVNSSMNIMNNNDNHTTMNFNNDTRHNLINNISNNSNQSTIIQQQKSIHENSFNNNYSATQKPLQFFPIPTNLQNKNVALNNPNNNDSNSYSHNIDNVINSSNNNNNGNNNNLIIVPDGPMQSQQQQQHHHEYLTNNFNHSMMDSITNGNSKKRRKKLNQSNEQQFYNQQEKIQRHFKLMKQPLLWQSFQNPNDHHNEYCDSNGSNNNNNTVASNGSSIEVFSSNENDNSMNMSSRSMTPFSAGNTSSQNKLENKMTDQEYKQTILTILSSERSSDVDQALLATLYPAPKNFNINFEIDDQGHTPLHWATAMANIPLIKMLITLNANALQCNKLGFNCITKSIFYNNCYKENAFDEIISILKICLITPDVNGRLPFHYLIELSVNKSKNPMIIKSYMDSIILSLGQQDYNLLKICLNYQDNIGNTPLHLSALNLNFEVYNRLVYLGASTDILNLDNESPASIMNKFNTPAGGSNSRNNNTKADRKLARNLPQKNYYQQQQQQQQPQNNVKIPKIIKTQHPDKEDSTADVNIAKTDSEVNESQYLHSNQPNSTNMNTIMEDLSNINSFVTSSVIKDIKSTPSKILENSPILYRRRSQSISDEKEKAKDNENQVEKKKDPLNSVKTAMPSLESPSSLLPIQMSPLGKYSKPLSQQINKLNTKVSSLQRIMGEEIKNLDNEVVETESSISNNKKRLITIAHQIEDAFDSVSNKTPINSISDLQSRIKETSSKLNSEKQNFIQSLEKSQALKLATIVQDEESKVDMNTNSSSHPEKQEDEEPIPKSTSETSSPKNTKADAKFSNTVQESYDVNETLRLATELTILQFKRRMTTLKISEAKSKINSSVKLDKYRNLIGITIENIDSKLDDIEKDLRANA

[2] = biological target: T1, Swi4-VF[2] fusion protein (S. cerevisiae); assay: split reporter; yeast enhanced monomeric Venus (yEmVenus) protein-fragment complementation assay (PCA); VF[1] and VF[2] fusions co-expressed from p413ADHcen and p415ADHcen in wild-type MatA (BY4741) yeast; fluorescence microscopy of living cells at room temperature with image analysis (threshold 225 against autofluorescence of mock cells); the three Cdc28 PCAs with Swi4, Swi6 and Mbp1 were also read in 30 deletion strains and in elm1T551A
[3] = biological target: T2, Swi6 yEmVenus PCA fusion protein (S. cerevisiae) (UniProt P09959); assay: as above
T2 sequence: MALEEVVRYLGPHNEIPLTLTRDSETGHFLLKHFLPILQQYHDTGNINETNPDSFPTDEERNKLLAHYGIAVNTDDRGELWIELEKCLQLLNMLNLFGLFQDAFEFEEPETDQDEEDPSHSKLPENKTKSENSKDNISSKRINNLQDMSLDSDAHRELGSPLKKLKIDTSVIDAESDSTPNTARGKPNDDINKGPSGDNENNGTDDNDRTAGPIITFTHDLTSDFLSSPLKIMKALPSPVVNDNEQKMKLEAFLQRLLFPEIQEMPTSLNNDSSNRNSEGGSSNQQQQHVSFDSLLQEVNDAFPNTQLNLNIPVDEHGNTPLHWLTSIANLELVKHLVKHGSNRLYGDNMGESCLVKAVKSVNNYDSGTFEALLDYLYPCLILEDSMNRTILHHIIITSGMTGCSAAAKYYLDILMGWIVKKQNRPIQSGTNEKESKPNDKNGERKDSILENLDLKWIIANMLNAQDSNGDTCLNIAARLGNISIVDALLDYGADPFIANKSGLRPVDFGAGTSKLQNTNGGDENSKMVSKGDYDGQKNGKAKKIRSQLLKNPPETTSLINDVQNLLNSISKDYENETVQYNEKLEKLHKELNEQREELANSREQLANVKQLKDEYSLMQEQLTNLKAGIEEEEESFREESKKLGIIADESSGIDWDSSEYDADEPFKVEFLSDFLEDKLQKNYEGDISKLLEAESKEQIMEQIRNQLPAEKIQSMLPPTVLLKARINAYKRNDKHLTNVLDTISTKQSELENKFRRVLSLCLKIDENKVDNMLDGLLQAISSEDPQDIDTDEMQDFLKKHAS

binding [2]: binds | binding [3]: binds
Substance: Cdc28-VF[1] fusion protein (from UniProt P00546 1-298) (enzyme)
binding [1]: no binding (condition: in the Δelm1 deletion strain)
